Some of the results follow. Shown are side measurements of this screen, not its main read-out; they come without a call. The list favours compounds with an active or inconclusive main result. Words in brackets tell the shape of the fitted curve; partial curves, single points and poor fits give uncertain potencies.
Assay: qHTS Assay for Lipid Storage Modulators in Drosophila S3 Cells;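 for cell number change: cells counted by Cell Tracker Red CMTPX staining in the red channel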
Details: BODIPY lipid droplet fluorescence, 18-24 h; for cell number change: measured here: cell count max response, cells fed with added oleic acid
Summary of the method: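 Drosophila S3 cells loaded with oleic acid (400 uM, as added) and compounds at several concentrations; lipid droplets imaged by 488-nm laser-scanning cytometry, 500–530 nm intensity and object ratio to cell channel. Percent activity normalized to 20 uM Triacsin C.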

[1] = measured here: cell number channel AC50, cells fed with added oleic acid
[2] = measured here: lipid fluorescence (Fed channel) AC50, cells fed with added oleic acid

| SMILES | cell number change | AC50 [1] | AC50 [2] |
| --- | --- | --- | --- |
| CCOC(=O)N1CCC(NC(=O)c2cc3c(-c4ccc(OC)c(OC)c4)nn(C)c3s2)CC1 | -17.6% | 3.26 µM [falling, single point] |  |
| CCOC(=O)N1CCN(c2nc3ccccn3c(=O)c2C=O)CC1 | -11.1% |  | 29.1 µM [rising, single point] |
| Cc1cc(C)nc(N=Nc2c(O)n(Cc3ccc(Cl)cc3)c3ccccc23)n1 | -79.8% | 20.6 µM [falling, partial curve] | 5.8 µM [falling, full curve] |
| Cc1noc(C)c1C(=O)Nc1cccc(S(=O)(=O)N2CCCCC2)c1 | -0.129% |  | 13 µM [falling, partial curve, poor fit] |
| O=C(C1CCC1)N1CCCc2cc(S(=O)(=O)N3CCN(c4ccccc4)CC3)ccc21 |  |  | 2.31 µM [falling, partial curve] |
| CCOCCCNC(=O)/C(C#N)=C/c1ccccc1F | -32.3% | 29.1 µM [falling, single point] | 20.6 µM [falling, single point] |
| CCN(CC)c1ccc2cc(C=O)c(=O)oc2c1 | 158% | 23.1 µM [rising, single point] | 0.651 µM [rising, full curve] |
| Cn1c(=O)oc2cc(S(=O)(=O)NC3CCCc4ccccc43)ccc21 (configuration not stated) |  |  | 18.4 µM [rising, single point] |
| CCn1cc(S(=O)(=O)Nc2cc(C(=O)OC)ccc2C)cn1 | 33.6% | 14.6 µM [rising, partial curve, poor fit] |  |
| COc1ccc(CNC(=S)NC2CCCCC2)cc1 |  |  | 29.1 µM [falling, single point] |
| CC(=O)c1cccc(N(CC(=O)NC2CCCCC2)C(=O)c2csnn2)c1 | -18.1% | 0.731 µM [falling, full curve, poor fit] |  |
| O=C(CN1C(=O)S/C(=C\c2ccc(C(=O)O)cc2)C1=O)Nc1ccccc1 | 16.4% |  | 25.9 µM [rising, partial curve, poor fit] |
| C=CCn1c(CCNC(=O)c2cccs2)nnc1SCC(=O)Nc1cccc(Cl)c1C | -19.3% |  | 20.6 µM [falling, single point] |
| Cc1cc(C)n(C2=NS(=O)(=O)c3ccccc32)n1 | -25.1% | 2.06 µM [falling, partial curve, poor fit] | 4.61 µM [falling, full curve] |
| O=C(CSc1ncnc2scc(-c3ccc(Cl)cc3)c12)NCc1ccc2c(c1)OCO2 | 1.98% |  | 2.59 µM [rising, partial curve] |
| Cc1ccccc1NC(=O)c1ccc2nccnc2c1 | -13.3% |  | 6.51 µM [falling, single point] |
| CS(=O)(=O)Nc1ccc(C(=O)NCc2ccc3c(c2)OCO3)cc1 | 1.64% |  | 2.91 µM [rising, single point] |
| CCC(C(=O)Nc1cccc(C(=O)O)c1C)c1ccccc1 (configuration not stated) | 28.1% |  |  |
| Cc1nnc(NC(=O)c2ccc(S(=O)(=O)N3CCCCC3C)cc2)o1 (configuration not stated) | 14% |  | 0.731 µM [falling, single point] |
| COc1cccc(OCc2nc3c4cnn(-c5ccccc5)c4ncn3n2)c1 | -89.4% | 20.6 µM [falling, single point] | 29.1 µM [falling, single point] |

| SMILES | cell number change | AC50 [1] | AC50 [2] |
| --- | --- | --- | --- |
| Cc1ccccc1CC1(CO)CCCN(C(=O)c2cccc(Cl)c2)C1 (configuration not stated) | 28.3% |  | 6.51 µM [rising, full curve, poor fit] |
| Cc1nnc(SC(C)C(=O)NC2CCCCC2)s1 (configuration not stated) | 0.961% |  | 0.461 µM [falling, full curve, poor fit] |
| COc1cc2sc(C)nc2c2ccccc12 | 9.22% |  | 29.1 µM [falling, single point] |
| CN(C/C=C/c1ccccc1[N+](=O)[O-])Cc1ccccc1 | 2.92% | 2.91 µM [rising, single point] | 6.51 µM [rising, partial curve, poor fit] |
| Cc1ccccc1CNCc1ccc2c(c1)OCO2 | 27.8% | 2.31 µM [rising, partial curve, poor fit] |  |
| O=C(O)/C=C/C(=O)Nc1ccccc1C(=O)OCC(=O)c1ccc2c(c1)OCCO2 | 23% |  | 25.9 µM [rising, single point] |
| CC1(C)N([O-])C(c2cccs2)=C[N+]1=O | -27.6% | 0.082 µM [falling, full curve, poor fit] | 3.26 µM [falling, full curve] |
| CCOc1ccc(-c2c(C(=O)N/N=C/c3ccc(Cl)cc3)nnn2-c2nonc2N)cc1 | 74.6% |  | 20.6 µM [falling, partial curve] |
| O=C(CN1CCN(S(=O)(=O)c2ccc(F)cc2)CC1)NCC1(N2CCOCC2)CCCCC1 | 8.55% |  | 29.1 µM [falling, single point] |
| CC1=C(C(=O)OCc2ccccc2)C(c2ccc(-c3ccccc3)cc2)NC(=O)N1CCCCCC(=O)O (configuration not stated) | -7.68% |  | 11.6 µM [rising, partial curve] |
| CN(C)CCCOC(=O)C1c2ccccc2Oc2ccccc21 | -29.8% |  | 7.31 µM [falling, partial curve] |
| CC1CCN(C(=O)c2ccc(S(=O)(=O)NCc3ccco3)cc2)CC1 | 0.87% |  |  |
| O=C(OCC(=O)N1CCOCC1)c1ccccc1SCC(=O)N1CCCC1 | 9.63% |  |  |
| N/C(=N\N=C/c1ccc(F)cc1)N/N=C\c1ccc(F)cc1 | -17.4% |  |  |
| Cc1ccc(-c2c(C)n([O-])c3c([n+]2=O)CCCCC3)cc1 | 8.68% |  | 1.64 µM [falling, full curve, poor fit] |
| CCCCN1Cc2c(nc3cc(-c4ccccc4)[nH]n3c2=O)C1=O | -46.2% |  | 29.1 µM [falling, single point] |
| CC(=O)NC(CCS(C)(=O)=O)C(=O)Nc1ccc(C)c(F)c1 (configuration not stated) | -5.35% |  |  |
| Cc1ccc(O)c(N=Nc2ccc(S(=O)(=O)N3CCOCC3)cc2)c1 | -22.3% |  | 10.3 µM [falling, partial curve, poor fit] |
| N#CCSCC(=O)Nc1ccc(Cl)cc1 | -60.7% | 29.1 µM [falling, single point] | 3.66 µM [falling, single point] |
| CCOC(=O)C(Cc1ccc(NC(C)=O)cc1)N1C(=O)c2ccccc2C1=O (configuration not stated) | -12.9% | 0.731 µM [falling, partial curve, poor fit] | 0.651 µM [falling, full curve, poor fit] |

| SMILES | cell number change | AC50 [1] | AC50 [2] |
| --- | --- | --- | --- |
| CCOC(=O)c1cnc2cc(-c3ccc(C(C)(C)C)cc3)nn2c1N | -26.2% | 6.51 µM [falling, single point] | 0.184 µM [falling, full curve, poor fit] |
| CCOC(=O)c1c(C(C#N)C#N)cc(C)nc1C | -1.65% |  |  |
| COc1ccc(C(=O)NCC(=O)N2CCN(c3ncccn3)CC2)cc1OC | 14.7% |  | 6.51 µM [falling, single point] |
| CCn1c(N2CCN(S(=O)(=O)c3ccc(OC)cc3)CC2)nc2ccccc21 | 17.9% |  | 23.1 µM [falling, single point] |
| CN(C(=O)c1ccc(NC(=O)Cc2ccc(NC(=O)C3CCCN(C(=O)C4CCCCC4)C3)cc2)cc1)C1CC1 (configuration not stated) | 6.02% | 3.66 µM [falling, single point] | 6.51 µM [falling, single point] |
| CC1(C)NC(=O)N(CCOCCOc2ccc3ccccc3c2Br)C1=O | -0.832% |  |  |
| COc1ccccc1N1CCN(C(=O)c2ccc(-c3nc4ccccc4s3)o2)CC1 | -7.52% |  | 0.0651 µM [falling, full curve, poor fit] |
| O=c1c(S(=O)(=O)c2ccc(Cl)cc2)cn(Cc2ccccc2)c2ccc(F)cc12 | 37.3% | 18.4 µM [rising, partial curve, poor fit] | 29.1 µM [falling, single point] |
| COC(=O)c1c(NC(=O)CN2C(=O)C(=O)N(CC(C)C)C2=O)sc(C)c1C | 19.5% | 6.51 µM [rising, single point] |  |
| COC(=O)c1ccccc1NC(=O)c1ccc(COc2cc(C)cc(C)c2)o1 |  |  | 6.51 µM [rising, single point] |
| CC(=O)c1ccc(N2CCN(CC(=O)Nc3ccc(N4CCOCC4)cc3)CC2)cc1 | 33.8% | 2.91 µM [rising, partial curve] | 0.517 µM [rising, full curve] |
| Cc1ccc(S(=O)(=O)N2CCOCC2)cc1C(=O)NCc1cccs1 | -0.919% |  | 2.91 µM [falling, single point] |
| COc1ccc(OCC(=O)N(Cc2ccco2)C2CCS(=O)(=O)C2)cc1 (configuration not stated) | -2.46% |  | 6.51 µM [falling, partial curve, poor fit] |
| CSc1ccccc1NS(=O)(=O)c1ccc2c(c1)OCCO2 | 43.8% | 6.51 µM [falling, single point] | 6.51 µM [falling, single point] |
| COc1cc(/C=C2\C(=O)NN(c3ccc(C)cc3)C2=O)cc([N+](=O)[O-])c1O | -5.78% |  |  |
| Cc1ccsc1/C=N/NC(=O)c1cccnc1 |  |  | 7.31 µM [rising, full curve, poor fit] |
| COc1ccc(N2CCN(C(=O)CNC(=O)c3ccco3)CC2)cc1 | 17.2% |  | 29.1 µM [rising, single point] |
| Cc1cccc(C)c1Nc1nnc(SCC(=O)c2ccc(Br)s2)s1 | 13.4% | 0.146 µM [rising, full curve, poor fit] |  |

Gathered by group: those above containing a nitro group on carbon.

| SMILES | cell number change | AC50 [1] | AC50 [2] |
| --- | --- | --- | --- |
| CN(C/C=C/c1ccccc1[N+](=O)[O-])Cc1ccccc1 | 2.92% | 2.91 µM [rising, single point] | 6.51 µM [rising, partial curve, poor fit] |
| COc1cc(/C=C2\C(=O)NN(c3ccc(C)cc3)C2=O)cc([N+](=O)[O-])c1O | -5.78% |  |  |

Reference: PubChem BioAssay AID2685 (National Center for Advancing Translational Sciences (NCATS), 2010)
